Test results: patent publication US6495529B1 (Warner-Lambert Company, priority 1998, dated 2002)

The chains behind the UniProt entries cited, without tags or fusion partners.
UniProt P54833, whole entry: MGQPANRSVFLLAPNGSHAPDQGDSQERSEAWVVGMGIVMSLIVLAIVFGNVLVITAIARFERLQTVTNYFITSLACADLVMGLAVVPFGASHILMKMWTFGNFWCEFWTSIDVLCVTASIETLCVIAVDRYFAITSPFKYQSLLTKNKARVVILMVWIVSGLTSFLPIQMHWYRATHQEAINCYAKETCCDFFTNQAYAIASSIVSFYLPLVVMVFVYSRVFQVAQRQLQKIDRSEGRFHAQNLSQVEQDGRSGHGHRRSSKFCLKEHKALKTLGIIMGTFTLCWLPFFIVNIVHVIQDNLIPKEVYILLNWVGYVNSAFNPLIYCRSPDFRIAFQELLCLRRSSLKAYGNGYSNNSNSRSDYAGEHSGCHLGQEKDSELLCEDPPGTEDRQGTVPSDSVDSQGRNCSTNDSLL

Biological target: T1, β2-receptors (Canis lupus familiaris, UniProt P54833)
T1 construct: The lungs of mongrel dogs were separated from cartilaginous airways and major blood vessels; from tissue; host or cells: mongrel dog lung membranes
Test: BETA-2 binding, 125Iodocyanopindolol (ICYP), canine lung membranes
Parameters: species or system dog
Conditions: check for β1 binding, β1-selective antagonist

CC(C)NCC(O)COc1ccc(CC(N)=O)cc1 (stereo not shown) [Atenolol, atenolol]
displacement of ICYP from pulmonary membranes: largely ineffective in displacing ICYP
